# These are yes or no findings as the source states them, for the method shown. Binding seen in cells or lysates may run through a third protein. Some results given as binding are weak or reduced against the parent protein; the word gives no strength.
# Amino acid sequences for entries named in this document (tags omitted).
# UniProt Q93ZT6: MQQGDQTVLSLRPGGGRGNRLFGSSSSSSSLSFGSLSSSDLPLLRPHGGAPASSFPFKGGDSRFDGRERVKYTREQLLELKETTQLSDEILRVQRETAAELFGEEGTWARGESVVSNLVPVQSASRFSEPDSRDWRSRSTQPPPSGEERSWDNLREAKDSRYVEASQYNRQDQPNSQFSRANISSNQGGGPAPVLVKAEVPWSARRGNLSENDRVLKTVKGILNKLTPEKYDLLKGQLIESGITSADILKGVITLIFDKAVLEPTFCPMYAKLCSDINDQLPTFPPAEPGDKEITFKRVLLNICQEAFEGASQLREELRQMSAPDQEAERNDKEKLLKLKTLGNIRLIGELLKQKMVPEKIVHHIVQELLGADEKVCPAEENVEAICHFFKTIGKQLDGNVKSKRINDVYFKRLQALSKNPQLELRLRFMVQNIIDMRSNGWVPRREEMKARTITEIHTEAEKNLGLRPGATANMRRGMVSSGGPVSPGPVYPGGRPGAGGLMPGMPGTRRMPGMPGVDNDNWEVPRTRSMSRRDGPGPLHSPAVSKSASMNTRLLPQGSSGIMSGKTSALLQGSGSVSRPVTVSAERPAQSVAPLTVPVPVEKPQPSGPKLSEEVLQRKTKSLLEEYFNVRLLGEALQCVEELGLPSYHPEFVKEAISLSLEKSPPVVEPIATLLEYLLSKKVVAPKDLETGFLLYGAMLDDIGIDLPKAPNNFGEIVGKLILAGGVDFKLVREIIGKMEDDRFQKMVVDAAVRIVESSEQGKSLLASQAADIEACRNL
# Target: T1, eIFiso4E (Arabidopsis thaliana (endogenous in Col-0 plants)) (UniProt O04663)
# T1 sequence: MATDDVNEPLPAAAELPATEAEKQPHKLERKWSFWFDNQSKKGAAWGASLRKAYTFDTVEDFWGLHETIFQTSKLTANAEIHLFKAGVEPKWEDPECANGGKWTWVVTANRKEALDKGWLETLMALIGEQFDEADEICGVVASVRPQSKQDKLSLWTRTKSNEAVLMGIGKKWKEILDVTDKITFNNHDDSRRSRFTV
# Experiment: pull-down; m7GTP-agarose beads incubated 1 hour at 4°C with young-leaf lysates (wild-type and eif4e1KO, mock or TuMV-inoculated, 14 dpi); one wash; western blot with anti-eIFiso4G1 antibodies
substance,measurement,value
eIFiso4G1 (from UniProt Q93ZT6 1-780),binding,binds

# From paper PMC10721207
